This note sets out measurements from the supplement of paper PMC12067093, “Discovery and optimisation of a covalent ligand for TRIM25 and its application to targeted protein ubiquitination” (Chemical Science, 2025).

By UniProt entry, the sequences of proteins in these tests, tags left out. Where a name states a change or a piece, a line headed by the entry shows the natural chain unless it says otherwise.
UniProt Q8IW52: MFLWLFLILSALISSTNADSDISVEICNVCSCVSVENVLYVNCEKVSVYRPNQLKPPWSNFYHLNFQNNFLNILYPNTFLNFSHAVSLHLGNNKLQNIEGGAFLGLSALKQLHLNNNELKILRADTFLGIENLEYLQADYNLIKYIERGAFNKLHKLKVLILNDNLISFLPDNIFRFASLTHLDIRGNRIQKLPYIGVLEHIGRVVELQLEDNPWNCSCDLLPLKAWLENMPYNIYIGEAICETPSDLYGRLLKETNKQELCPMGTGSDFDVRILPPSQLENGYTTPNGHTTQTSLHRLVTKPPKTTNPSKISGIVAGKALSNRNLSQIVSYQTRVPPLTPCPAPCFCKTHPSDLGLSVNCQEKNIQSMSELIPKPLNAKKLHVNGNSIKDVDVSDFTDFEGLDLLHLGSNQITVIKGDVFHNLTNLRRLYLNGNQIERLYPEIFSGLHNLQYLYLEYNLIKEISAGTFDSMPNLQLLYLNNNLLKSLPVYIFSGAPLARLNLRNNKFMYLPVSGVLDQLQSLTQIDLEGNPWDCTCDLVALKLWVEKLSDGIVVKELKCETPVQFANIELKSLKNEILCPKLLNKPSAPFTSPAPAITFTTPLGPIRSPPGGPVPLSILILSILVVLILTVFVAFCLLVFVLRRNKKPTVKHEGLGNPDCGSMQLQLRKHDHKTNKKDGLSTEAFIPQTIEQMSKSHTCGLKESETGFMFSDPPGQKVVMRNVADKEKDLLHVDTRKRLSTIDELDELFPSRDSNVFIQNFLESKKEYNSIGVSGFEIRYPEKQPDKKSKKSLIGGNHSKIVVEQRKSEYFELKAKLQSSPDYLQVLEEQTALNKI
UniProt Q92922, whole entry, looked up: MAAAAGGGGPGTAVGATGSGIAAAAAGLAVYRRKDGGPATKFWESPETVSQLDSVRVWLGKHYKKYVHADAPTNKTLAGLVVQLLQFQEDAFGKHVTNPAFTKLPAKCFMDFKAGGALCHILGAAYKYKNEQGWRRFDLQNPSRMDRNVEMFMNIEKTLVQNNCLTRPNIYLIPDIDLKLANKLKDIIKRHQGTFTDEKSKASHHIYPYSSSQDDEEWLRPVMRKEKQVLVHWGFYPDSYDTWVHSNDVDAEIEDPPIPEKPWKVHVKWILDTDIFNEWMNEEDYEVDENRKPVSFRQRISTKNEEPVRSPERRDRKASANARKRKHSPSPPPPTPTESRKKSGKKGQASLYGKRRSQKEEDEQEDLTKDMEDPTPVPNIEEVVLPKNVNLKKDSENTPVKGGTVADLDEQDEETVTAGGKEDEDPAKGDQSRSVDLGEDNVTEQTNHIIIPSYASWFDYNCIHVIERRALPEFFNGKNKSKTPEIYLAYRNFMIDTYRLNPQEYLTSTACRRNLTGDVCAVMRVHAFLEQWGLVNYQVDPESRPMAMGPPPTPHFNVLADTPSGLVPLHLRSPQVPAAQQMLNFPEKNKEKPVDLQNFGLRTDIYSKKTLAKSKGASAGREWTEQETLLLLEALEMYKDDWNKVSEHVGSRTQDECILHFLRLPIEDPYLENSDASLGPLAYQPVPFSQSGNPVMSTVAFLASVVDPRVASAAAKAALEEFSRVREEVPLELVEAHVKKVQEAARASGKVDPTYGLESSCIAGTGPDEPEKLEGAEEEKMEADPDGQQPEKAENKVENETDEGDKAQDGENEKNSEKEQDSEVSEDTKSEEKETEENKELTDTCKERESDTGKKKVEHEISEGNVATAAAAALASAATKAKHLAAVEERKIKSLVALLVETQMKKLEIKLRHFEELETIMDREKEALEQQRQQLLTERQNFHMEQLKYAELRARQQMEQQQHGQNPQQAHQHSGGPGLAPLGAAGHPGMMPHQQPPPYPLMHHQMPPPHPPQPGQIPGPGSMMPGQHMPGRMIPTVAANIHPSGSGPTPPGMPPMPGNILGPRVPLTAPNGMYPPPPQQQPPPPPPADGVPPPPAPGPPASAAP
UniProt Q13485: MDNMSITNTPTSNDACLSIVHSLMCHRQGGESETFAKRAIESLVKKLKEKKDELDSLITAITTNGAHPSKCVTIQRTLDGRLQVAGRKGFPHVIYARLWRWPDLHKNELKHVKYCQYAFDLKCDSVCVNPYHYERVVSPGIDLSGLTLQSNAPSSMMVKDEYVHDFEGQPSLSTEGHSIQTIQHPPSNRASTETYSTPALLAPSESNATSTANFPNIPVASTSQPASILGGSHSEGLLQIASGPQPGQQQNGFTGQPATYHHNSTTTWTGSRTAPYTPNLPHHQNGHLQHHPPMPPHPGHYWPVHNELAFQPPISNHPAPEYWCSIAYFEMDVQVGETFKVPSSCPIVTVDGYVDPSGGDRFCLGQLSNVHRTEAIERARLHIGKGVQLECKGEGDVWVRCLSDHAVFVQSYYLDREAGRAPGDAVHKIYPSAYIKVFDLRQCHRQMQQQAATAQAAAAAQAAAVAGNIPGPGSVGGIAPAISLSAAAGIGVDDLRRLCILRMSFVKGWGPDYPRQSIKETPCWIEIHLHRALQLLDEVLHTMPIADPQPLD
UniProt Q9HAU4, whole entry, looked up: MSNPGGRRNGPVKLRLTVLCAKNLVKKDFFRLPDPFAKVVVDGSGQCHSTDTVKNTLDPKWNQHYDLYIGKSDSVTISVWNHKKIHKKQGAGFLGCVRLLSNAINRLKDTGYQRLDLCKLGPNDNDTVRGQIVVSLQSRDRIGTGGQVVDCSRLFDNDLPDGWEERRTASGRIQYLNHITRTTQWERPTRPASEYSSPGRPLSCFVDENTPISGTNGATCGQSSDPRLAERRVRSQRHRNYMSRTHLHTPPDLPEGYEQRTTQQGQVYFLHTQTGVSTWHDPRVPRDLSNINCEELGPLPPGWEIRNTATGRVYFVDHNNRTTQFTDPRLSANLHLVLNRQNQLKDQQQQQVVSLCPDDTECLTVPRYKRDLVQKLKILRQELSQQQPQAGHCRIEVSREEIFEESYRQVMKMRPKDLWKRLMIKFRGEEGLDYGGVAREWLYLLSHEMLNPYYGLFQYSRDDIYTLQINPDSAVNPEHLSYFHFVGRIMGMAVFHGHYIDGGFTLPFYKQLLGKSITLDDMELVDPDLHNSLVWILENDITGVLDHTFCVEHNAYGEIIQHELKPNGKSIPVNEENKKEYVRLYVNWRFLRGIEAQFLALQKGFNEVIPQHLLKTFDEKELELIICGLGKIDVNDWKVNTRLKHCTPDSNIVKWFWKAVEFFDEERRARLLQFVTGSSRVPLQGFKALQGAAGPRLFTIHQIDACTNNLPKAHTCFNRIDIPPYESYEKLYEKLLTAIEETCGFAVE
UniProt O75643, whole entry, looked up: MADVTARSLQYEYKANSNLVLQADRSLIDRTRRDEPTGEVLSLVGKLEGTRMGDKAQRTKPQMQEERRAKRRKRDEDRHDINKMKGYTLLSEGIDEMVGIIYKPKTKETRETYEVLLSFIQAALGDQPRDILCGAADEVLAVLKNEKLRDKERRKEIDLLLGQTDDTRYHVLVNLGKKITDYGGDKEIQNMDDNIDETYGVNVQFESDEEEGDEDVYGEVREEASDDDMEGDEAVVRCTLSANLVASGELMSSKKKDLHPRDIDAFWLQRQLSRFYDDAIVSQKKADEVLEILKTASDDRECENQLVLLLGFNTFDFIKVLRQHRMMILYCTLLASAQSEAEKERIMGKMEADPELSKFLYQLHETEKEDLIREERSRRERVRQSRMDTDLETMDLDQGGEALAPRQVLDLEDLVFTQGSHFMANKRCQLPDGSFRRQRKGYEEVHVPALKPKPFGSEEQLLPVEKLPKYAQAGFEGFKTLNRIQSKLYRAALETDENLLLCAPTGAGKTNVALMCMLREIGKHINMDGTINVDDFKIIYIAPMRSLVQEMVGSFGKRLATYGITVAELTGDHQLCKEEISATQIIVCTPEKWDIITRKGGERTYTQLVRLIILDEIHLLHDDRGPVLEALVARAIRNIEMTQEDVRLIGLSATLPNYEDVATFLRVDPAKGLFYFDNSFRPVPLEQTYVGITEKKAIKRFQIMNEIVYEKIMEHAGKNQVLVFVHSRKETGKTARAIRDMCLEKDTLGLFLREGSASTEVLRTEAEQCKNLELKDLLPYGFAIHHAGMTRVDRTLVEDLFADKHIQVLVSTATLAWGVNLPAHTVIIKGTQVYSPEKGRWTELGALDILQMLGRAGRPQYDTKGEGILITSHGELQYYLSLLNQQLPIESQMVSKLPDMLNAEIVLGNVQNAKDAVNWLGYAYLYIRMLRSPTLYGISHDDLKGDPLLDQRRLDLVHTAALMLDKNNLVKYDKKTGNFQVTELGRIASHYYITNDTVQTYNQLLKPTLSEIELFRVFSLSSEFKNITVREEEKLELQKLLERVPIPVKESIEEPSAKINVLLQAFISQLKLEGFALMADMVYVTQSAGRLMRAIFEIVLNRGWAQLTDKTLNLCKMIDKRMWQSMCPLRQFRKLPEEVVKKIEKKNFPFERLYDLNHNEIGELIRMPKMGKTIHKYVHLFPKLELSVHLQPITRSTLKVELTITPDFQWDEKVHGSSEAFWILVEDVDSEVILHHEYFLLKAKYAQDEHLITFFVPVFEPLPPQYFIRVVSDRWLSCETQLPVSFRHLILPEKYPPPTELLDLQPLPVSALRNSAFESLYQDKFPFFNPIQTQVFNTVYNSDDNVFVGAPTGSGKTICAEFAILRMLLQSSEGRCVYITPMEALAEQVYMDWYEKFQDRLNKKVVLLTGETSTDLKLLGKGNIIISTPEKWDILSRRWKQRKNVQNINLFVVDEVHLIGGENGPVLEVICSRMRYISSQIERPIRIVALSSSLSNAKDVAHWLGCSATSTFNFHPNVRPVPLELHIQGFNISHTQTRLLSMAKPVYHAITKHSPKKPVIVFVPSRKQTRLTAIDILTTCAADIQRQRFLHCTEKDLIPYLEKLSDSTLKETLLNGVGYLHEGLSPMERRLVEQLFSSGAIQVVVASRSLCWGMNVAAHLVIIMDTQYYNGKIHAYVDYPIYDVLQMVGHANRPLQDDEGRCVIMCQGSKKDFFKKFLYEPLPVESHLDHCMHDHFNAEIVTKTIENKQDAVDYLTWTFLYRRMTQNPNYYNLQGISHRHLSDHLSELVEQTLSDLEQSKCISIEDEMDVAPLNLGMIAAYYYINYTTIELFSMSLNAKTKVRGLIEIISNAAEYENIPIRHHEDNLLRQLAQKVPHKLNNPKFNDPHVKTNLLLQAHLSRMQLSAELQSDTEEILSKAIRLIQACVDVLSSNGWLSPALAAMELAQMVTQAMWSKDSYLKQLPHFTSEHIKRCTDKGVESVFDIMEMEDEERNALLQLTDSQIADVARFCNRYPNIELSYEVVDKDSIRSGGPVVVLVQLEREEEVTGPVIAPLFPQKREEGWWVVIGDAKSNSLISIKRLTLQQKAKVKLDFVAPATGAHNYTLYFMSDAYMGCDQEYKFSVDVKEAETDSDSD
UniProt Q9Y6M5: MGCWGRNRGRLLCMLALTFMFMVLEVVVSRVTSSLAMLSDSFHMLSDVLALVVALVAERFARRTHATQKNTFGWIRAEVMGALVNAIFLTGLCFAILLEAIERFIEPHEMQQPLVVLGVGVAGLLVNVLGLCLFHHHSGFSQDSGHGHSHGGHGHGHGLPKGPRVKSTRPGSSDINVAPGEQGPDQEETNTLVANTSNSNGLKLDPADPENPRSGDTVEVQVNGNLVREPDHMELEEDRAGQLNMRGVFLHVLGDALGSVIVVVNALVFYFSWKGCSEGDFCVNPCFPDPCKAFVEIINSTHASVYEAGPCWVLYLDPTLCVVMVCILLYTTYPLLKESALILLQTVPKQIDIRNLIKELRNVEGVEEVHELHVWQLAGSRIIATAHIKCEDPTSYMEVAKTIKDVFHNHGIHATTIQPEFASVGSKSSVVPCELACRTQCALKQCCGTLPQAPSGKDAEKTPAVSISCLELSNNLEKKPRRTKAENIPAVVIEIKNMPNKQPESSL
UniProt Q5K4L6: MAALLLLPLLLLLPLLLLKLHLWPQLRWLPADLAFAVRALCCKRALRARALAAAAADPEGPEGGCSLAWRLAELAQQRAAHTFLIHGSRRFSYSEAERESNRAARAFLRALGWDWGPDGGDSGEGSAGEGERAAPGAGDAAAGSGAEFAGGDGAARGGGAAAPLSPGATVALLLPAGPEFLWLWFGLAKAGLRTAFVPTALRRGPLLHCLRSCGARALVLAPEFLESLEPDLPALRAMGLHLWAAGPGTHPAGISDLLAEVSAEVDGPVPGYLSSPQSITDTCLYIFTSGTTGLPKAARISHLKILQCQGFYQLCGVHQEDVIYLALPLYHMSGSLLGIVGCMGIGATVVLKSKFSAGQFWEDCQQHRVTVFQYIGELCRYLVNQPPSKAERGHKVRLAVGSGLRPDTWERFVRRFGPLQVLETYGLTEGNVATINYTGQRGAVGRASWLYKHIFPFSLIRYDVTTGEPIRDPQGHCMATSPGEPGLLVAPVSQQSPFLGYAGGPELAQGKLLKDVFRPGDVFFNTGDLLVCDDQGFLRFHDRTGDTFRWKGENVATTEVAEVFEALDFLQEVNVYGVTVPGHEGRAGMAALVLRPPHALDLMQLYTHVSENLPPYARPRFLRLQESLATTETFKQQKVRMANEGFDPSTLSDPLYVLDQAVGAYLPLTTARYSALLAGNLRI

Compound in the test: CC1Cc2ccccc2N1C(=O)C1CCCN(C1)C(=O)CCl (mixture of isomers) [TRIM25 ligand 11 (diastereomer mixture)]
Put plainly: probe-labelled cysteine peptide fold change vs DMSO (competition) (log2 fold change); higher = less target engagement (more negative = stronger competition). To be noted: THP-1, incubation time: 4 h.

This is one part of the list.
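Note: competitive chemoproteomic profiling in live THP-1 cells with an iodoacetamide desthiobiotin (IA-DTB) probe, comparing probe-labelled peptide intensities in compound-treated cells against DMSO-treated controls.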

For the target “SMPD2_O60906_188_KADVVLLCGDLNMHPEDLGCCLLK (UniProt O60906)”, the “probe-labelled cysteine peptide fold change” value was 0.0765 (10 µM) and -0.00132 (50 µM).
Take “SLC39A14_Q15043_290_LQNGDLDHMIPQHCSSELDGK (UniProt Q15043)”: the “probe-labelled cysteine peptide fold change” value (10 µM) amounted to 0.116 and the “probe-labelled cysteine peptide fold change” value (50 µM) is -0.277.
For “SLC43A1_O75387_384_DCVDAPTQGTVLGDAR (UniProt O75387)”, in that order: 0.17 and 0.0451.
Taken in the same sequence, the figures for “SLITRK4_Q8IW52_580_NEILCPK (UniProt Q8IW52)” were 0.195 and -0.00736.
Taken in the same sequence, the figures for “SLITRK4_Q8IW52_661_HEGLGNPDCGSMQLQLR (UniProt Q8IW52)” were 0.167 and -0.0988.
On to “SMARCC1_Q92922_761_VDPTYGLESSCIAGTGPDEPEK (UniProt Q92922)”, for which the “probe-labelled cysteine peptide fold change” value is 0.3 (10 µM) and 0.107 (50 µM).
“SMAD4_Q13485_363_FCLGQLSNVHR (UniProt Q13485)”: the “probe-labelled cysteine peptide fold change” value was determined as 0.191 (10 µM) and 0.253 (50 µM).
Taken in the same sequence, the figures for “SMARCC1_Q92922_845_ELTDTCK (UniProt Q92922)” were -0.0769 and -0.154.
Turning to “SMURF2_Q9HAU4_627_ELELIICGLGK (UniProt Q9HAU4)”, the “probe-labelled cysteine peptide fold change” value reads like this: (10 µM) 0.0245; (50 µM) 0.062.
With “SLC4A1AP_Q9BWU0_435_EAMIQCSLEACR (UniProt Q9BWU0)”, the “probe-labelled cysteine peptide fold change” value runs as follows: (10 µM) 0.114; (50 µM) 0.0996.
For “SNRNP200_O75643_1731_FLYEPLPVESHLDHCMHDHFNAEIVTK (UniProt O75643)”, in that order: -0.083 and -0.047.
Consider “SMC5_Q8IY18_229_QLETSCK (UniProt Q8IY18)”, for which the “probe-labelled cysteine peptide fold change” value (10 µM) was 0.0413 and the “probe-labelled cysteine peptide fold change” value (50 µM) was 0.0551.
In the case of SMC2_O95347_800_KLDCAK (UniProt O95347), the “probe-labelled cysteine peptide fold change” value runs as follows: (10 µM) -0.0584; (50 µM) 0.0695.
As for “SND1_Q7KZF4_837_DIQNTQCLLNVEHLSAGCPHVTLQFADSK (UniProt Q7KZF4)”, the “probe-labelled cysteine peptide fold change” value (10 µM) turned out to be 0.203 and the “probe-labelled cysteine peptide fold change” value (50 µM) is -0.214.
“SLK_Q9H2G2_1212_MTGESECLNPSTQSR (UniProt Q9H2G2)”: the “probe-labelled cysteine peptide fold change” value (10 µM) is -0.113 and the “probe-labelled cysteine peptide fold change” value (50 µM) is -0.264.
Taken in the same sequence, the figures for “SMCR8_Q8TEV9_644_DNSCEGFPAYELDPSHLLASR (UniProt Q8TEV9)” were 0.161 and -0.199.
For “SNRNP200_O75643_1359_TICAEFAILR (UniProt O75643)”, in that order: 0.00479 and 0.0853.
Taken in the same sequence, the figures for “SLC30A1_Q9Y6M5_437_SSVVPCELACR (UniProt Q9Y6M5)” were -0.129 and -0.19.
On to “SLC9A3R1_O14745_206_IVEVNGVCMEGK (UniProt O14745)”, for which the “probe-labelled cysteine peptide fold change” value reads like this: (10 µM) -0.0612; (50 µM) 0.0485.
Taken in the same sequence, the figures for “SLMAP_Q14BN4_286_SLSNTEDECTHLK (UniProt Q14BN4)” were -0.00489 and -0.0566.
“SLC30A1_Q9Y6M5_390_CEDPTSYMEVAK (UniProt Q9Y6M5)”: the “probe-labelled cysteine peptide fold change” value is, setting by setting: (10 µM) -0.0949; (50 µM) -0.165.
Consider “SMCHD1_A6NHR9_1823_DLLTFPDNVEHCETVFGMLLGDTIILDNLDAANHYR (UniProt A6NHR9)”, for which the “probe-labelled cysteine peptide fold change” value runs as follows: (10 µM) 0.242; (50 µM) 0.275.
For “SMAD3_P84022_109_AMELCEFAFNMK (UniProt P84022)”, in that order: 0.149 and 0.161.
For “SLK_Q9H2G2_86_VIDTKSEEELEDYMVEIDILASCDHPNIVK (UniProt Q9H2G2)”, in that order: -0.198 and -0.0733.
For the target “SMN2_Q16637_60_NGDICETSGKPK (UniProt Q16637)”, the “probe-labelled cysteine peptide fold change” value (10 µM) was -0.146 and the “probe-labelled cysteine peptide fold change” value (50 µM) is -0.16.
Taken in the same sequence, the figures for “SLC30A1_Q9Y6M5_433_SSVVPCELACR (UniProt Q9Y6M5)” were 0.0126 and -0.123.
Turning to “SMCHD1_A6NHR9_492_LIPYTSVEDFDWCTPPK (UniProt A6NHR9)”, the “probe-labelled cysteine peptide fold change” value is -0.0283 (10 µM) and -0.211 (50 µM).
For “SMC3_Q9UQE7_1134_CDPAPFYLFDEIDQALDAQHRK (UniProt Q9UQE7)”, in that order: -0.044 and 0.191.
For “SLC27A3_Q5K4L6_256_GPLLHCLR (UniProt Q5K4L6)”, in that order: 0.138 and 0.0913.
For “SMCHD1_A6NHR9_84_EITCDNFDETVK (UniProt A6NHR9)”, in that order: -0.00484 and -0.0181.
For the target “SMYD3_Q9H7B4_263_DQYCFECDCFR (UniProt Q9H7B4)”, the “probe-labelled cysteine peptide fold change” value reads like this: (10 µM) -0.0567; (50 µM) 0.116.
For “SMC4_Q9NTJ3_158_DIQSCTVEVHFQK (UniProt Q9NTJ3)”, the “probe-labelled cysteine peptide fold change” value by setting is: (10 µM) 0.131; (50 µM) 0.23.
Take “SMAD4_Q13485_127_CDSVCVNPYHYER (UniProt Q13485)”: the “probe-labelled cysteine peptide fold change” value reads like this: (10 µM) 0.000739; (50 µM) 0.0905.
For “SMC3_Q9UQE7_972_KLEQCNTELK (UniProt Q9UQE7)”, in that order: -0.0501 and -0.026.
For “SLFN13_Q68D06_286_LPIVHFCSSKPR (UniProt Q68D06)”, in that order: 0.037 and 0.00514.
For “SLC27A3_Q5K4L6_112_ALAAAAADPEGPEGGCSLAWR (UniProt Q5K4L6)”, in that order: -0.0867 and -0.00676.
In the case of “SNRNP200_O75643_742_DMCLEK (UniProt O75643)”, the “probe-labelled cysteine peptide fold change” value is, setting by setting: (10 µM) 0.0208; (50 µM) 0.0779.
For “SLC3A2_P08195_431_WCSWSLSQAR (UniProt P08195)”, the “probe-labelled cysteine peptide fold change” value was 0.038 (10 µM) and -0.013 (50 µM).
For “SMCHD1_A6NHR9_985_FSGAPNLPVYVVDCSSSGTSILTGSAIQVQNIKK (UniProt A6NHR9)”, the “probe-labelled cysteine peptide fold change” value was -0.176 (10 µM) and -0.146 (50 µM).
As to “SNRNP200_O75643_1580_LTAIDILTTCAADIQR (UniProt O75643)”, the “probe-labelled cysteine peptide fold change” value is, setting by setting: (10 µM) 0.135; (50 µM) -0.122.
For “SMAD4_Q13485_401_CLSDHAVFVQSYYLDR (UniProt Q13485)”, in that order: 0.181 and -0.0744.
For “SNRNP200_O75643_133_DILCGAADEVLAVLK (UniProt O75643)”, in that order: -0.0841 and -0.018.
